Record: PubChem BioAssay AID1224826 (NIAID, 2016)
This is an unselected part of about 17,000 reagents tested. Over the whole deposit, about 1,110 (6.6%) were called active. 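Active means lowered or raised reporter signal; replicate intensities are raw and not normalised per plate.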 Entries without a mark were called inactive. Further read-outs or replicates are left out here. Reagent sequences are not shown.

Aim: 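Regulators of Tlr4 signalling leading to Tnf-alpha expression in macrophages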 (primary screen)
System: RAW264.7 G9 macrophages from mouse bearing reporters for p65 (GFP) and the Tnf promoter (mCherry)
Reagents: siRNA pool against mouse genes, 100 nM
Time to read-out: 16 h of LPS stimulation, after 2 days of siRNA transfection
Challenge: bacterial lipopolysaccharide (Salmonella minnesota R595), 10 ng/ml
Read-out: 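Imaged Tnf reporter mCherry in nuclei, minus background, normalised per plate to the median and expressed as robust z-scores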
Scale: Tnf reporter robust z-score: higher = stronger Tnf promoter reporter signal after LPS
Call rule: 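a well counts as active at a score of -1.3 or below (Tlr4 knock-down control median) or above 3 (raised signal); controls and wells holding fewer than 50 cells are excluded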
Meaning of the calls: active = Tnf reporter clearly lowered or raised; inactive = no clear change in Tnf reporter

Against Luc7l the deposit lists Tnf reporter robust z-score 0.2; fewer than 50 cells in well enough cells in well. With knock-down of Dusp10, the screen gave Tnf reporter robust z-score 0.58; fewer than 50 cells in well enough cells in well. For Tars3, the entry reads Tnf reporter robust z-score 0.2; fewer than 50 cells in well enough cells in well. Depletion of Mterf1a came out at: Tnf reporter robust z-score -0.04; fewer than 50 cells in well enough cells in well. Silencing of Esrrb came out at: Tnf reporter robust z-score -0.04; fewer than 50 cells in well enough cells in well. Krt71 gave Tnf reporter robust z-score -1.57 (active); fewer than 50 cells in well enough cells in well.

Klra1 scored Tnf reporter robust z-score -0.73; fewer than 50 cells in well enough cells in well. For Epb41l3 the deposit lists Tnf reporter robust z-score 1.27; fewer than 50 cells in well enough cells in well. Against Zfand5, the entry reads Tnf reporter robust z-score 0.66; fewer than 50 cells in well enough cells in well. Igsf6 gave Tnf reporter robust z-score -1.5 (active); fewer than 50 cells in well enough cells in well. Depletion of Dusp18 gave: Tnf reporter robust z-score -1.08; fewer than 50 cells in well enough cells in well. After knock-down of Ccny, the record shows fewer than 50 cells in well fewer than 50 cells per well; well left out of calls.

Already shown: an excerpt of the list.
Krt71 — Tnf reporter robust z-score = -1.57 (active); fewer than 50 cells in well = enough cells in well
Klra1 — Tnf reporter robust z-score = -0.73; fewer than 50 cells in well = enough cells in well
